Measurements published in patent US10220022B2, “Compositions and methods employing Wolbachia FtsZ as a target for Albendazole sulfone” (The Regents of the University of California, priority 2011, dated 2019).

System: Wolbachia-infected JW18 cells
Test: High-throughput screen for compounds reducing Wolbachia infection of JW18 cells
Type: cell-based, Drosophila
Conditions: 100 uM per well, 5-day incubation at 25 C, 3 replicates
Protocol: Cells were plated in 384-well, clear bottom plates (Griener Bio-one) pre-coated with 0.5 mg/mL Concanavalin A. JW18 cells were added to 22 columns, and JW18TET cells were added to the remaining 2 columns at a dilution of 6500 cells per well. After the cells adhered to the plates, compounds were transferred into 20 columns of JW18 cells in the center of the plate using a Janus MDT pin tool. The final concentration of compound was 100 uM per well. All treatments were distributed into 3 plate replicates.
After a 5-day incubation with the compounds at 25 C, the cells were prepared for imaging. […]
Stained treatment plates were imaged using the MetaExpress Micro system (Molecular Devices, Sunnyvale Calif.). […] These images were next analyzed using customized journaling software provided by Molecular Devices. The journal first masks any areas where clumps of cells are detected, based upon intensity of the Jupiter-GFP. […] A threshold for DAPI fluorescence detection is set to detect as much Wolbachia as possible in JW18 control cells while minimizing detection of background DAPI signal in JW18TET control cells. Then this cytoplasmic DAPI level, read to indicate Wolbachia, is scored in the cytoplasm of individual cells to determine whether each cell is infected with Wolbachia. The cutoff value distinguishing “infected” from “uninfected” cells is 4000-5000 fluorescence units per cell. […]

For `CCN(CC)c1ccc2cc3ccc(=[N+](CC)CC)cc-3oc2c1.[Cl-]` [Pyronin B], the “reduction of Wolbachia-infection frequency (screen hit)” value was “hits”.
